Article PMC11994786
These are yes or no findings as the source states them, for the method shown. Binding seen in cells or lysates may run through a third protein. These calls come from enrichment with a bait or labelling near it, and not all partners need be listed.

Sequences of proteins named here, by UniProt entry; tags and fusion partners are left off.
UniProt P69566: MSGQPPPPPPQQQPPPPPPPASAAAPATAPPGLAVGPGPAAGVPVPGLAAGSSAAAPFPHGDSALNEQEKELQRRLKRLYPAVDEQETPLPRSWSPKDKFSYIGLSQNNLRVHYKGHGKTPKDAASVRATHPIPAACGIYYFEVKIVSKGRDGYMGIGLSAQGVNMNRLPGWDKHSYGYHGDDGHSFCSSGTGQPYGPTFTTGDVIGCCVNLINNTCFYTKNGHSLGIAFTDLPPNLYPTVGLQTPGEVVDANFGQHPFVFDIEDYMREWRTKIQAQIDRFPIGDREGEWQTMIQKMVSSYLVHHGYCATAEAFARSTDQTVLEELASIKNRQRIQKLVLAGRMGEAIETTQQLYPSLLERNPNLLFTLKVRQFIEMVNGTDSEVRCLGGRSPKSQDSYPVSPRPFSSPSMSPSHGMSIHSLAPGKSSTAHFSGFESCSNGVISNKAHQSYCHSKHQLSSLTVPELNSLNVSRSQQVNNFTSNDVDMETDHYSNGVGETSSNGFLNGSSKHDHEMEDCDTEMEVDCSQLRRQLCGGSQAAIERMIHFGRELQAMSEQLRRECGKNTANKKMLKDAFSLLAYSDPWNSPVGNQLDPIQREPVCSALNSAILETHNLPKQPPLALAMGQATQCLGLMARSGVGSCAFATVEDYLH

B1: Noa1 (protein, UniProt Q9JJG9 1-693)
chain: MLPARLACGLLCGLRRGPAPAAACYGPARWLLEGKCEVPIRQRASSLGRRVPPSSTATEDYAEGPDTEERFLFPEYVPERTPEEQVRELQELRELQQLQQEKERERLQQREERLQQKLRAGFRTLPVPEFPDASVPPSGIYCSGCGAELHCQHPGLPGYLPEEKFRDAAQAEGGPARTVCQRCWLLVHHGRALRLQVSRDQYLELVSAALRRPGPALVLYMVNLLDLPDALLPDLPKLVGPKQLIVLGNKVDLLPQDAPGYLKRLRKRLWDDCIRAGLVVAPGHQGPQYPAGDEPLEEIKNQNPSSRSRTVVKDVRLISAKTGYGVEEMISALQRSWRYRGDVYLVGTTNAGKSTLFNTLLESDYCTAKGSEAIDRATISPWPGTTLNLLKFPICNPTPYRMFKRQRRLQEDATKAEEDLSEEEQSQLNQLKKHGYIVGRVGRTFSYSREQDEVPFEFDADSLAFDMGSEPVVSVCKSTKQIELTPEDVKDAHWFYDTPGITKESCILNLLTEKEINTVLPTHSIIPRTFVLKPGMVLFLGGIARIDFLQGNQSAWFTVVASNFLPVHITSLDKADALYEKHAGHELLLVPMGGKERMAQFPPLVAEDITLKGGGKFEAVADIKFSSAGWVAVTPYSEGTLHLRGHTPEGTALTVHPPVLPYIVNVKGQRMKKSVAYKTKKPPSLVHNLKKHR
B2: Slc25a42 (protein, UniProt Q8R0Y8 1-318)
chain: MGNGVQEGSVRLREDAEAVLAGAVSSKRDHRQVLSSLLSGALAGALAKTAVAPLDRTKIIFQVSSKRFSAKEAFRLLYFTYLNEGFLSLWRGNSATMVRVIPYAAIQFSAHEEYKRILGHYYGFRGEALPPWPRLLAGALAGTTAASLTYPLDLVRARMAVTPKEMYSNIFHVFIRISREEGLKTLYFGFTPTVLGVIPYAGLSFFTYESLKSLHREYSGRPQPYPFERMVFGACAGLIGQSASYPLDVVRRRMQTAGVTGHQHGSILSTLRSIVREEGAVRGLYKGLSMNWLKGPIAVGISFTTFDLMQILLRRLQS
B3: Erlin1 (protein, UniProt Q91X78 1-348)
chain: MNMTQARLLVAAVVGLVAILLYASIHKIEEGHLAVYYRGGALLTSPSGPGYHIMLPFITTFRSVQTTLQTDEVKNVPCGTSGGVMIYIDRIEVVNMLAPYAVFDIVRNYTADYDKTLIFNKIHHELNQFCSAHTLQEVYIELFDQIDENLKQALQKDLNTMAPGLTIQAVRVTKPKIPEAIRRNFELMEAEKTKLLIAAQKQKVVEKEAETERKRAVIEAEKIAQVAKIRFQQKVMEKETEKRISEIEDAAFLAREKAKADAEYYAAHKYATSNKHKLTPEYLELKKYQAIASNSKIYFGSNIPSMFVDSSCALKYSDGRTGREDSLPPEEAREPSGESPIQNKENAG
B4: Ndufa8 (protein, UniProt Q9DCJ5 1-172)
chain: MPGIVELPTLEELKVEEVKVSSAVLKAAAHHYGAQCDKTNKEFMLCRWEEKDPRRCLKEGKLVNGCALNFFRQIKSHCAEPFTEYWTCLDYSNMQLFRHCRQQQAKFDQCVLDKLGWVRPDLGQLSKVTKVKTDRPLPENPYHSRARPEPNPVIEGDLKPAKHGTRFFFWTV
B5: Ddo (D-Aspartate Oxidase) (protein, UniProt Q922Z0 1-341)
chain: MDTVCIAVVGAGVIGLSTAACISQLVPGCTVTVISDRFTPDTTSNVAAGMLIPHTCADTPVPTQKRWFRETFEHLSEIAKSAEAADAGVHLVSGWQIFRSVPAEEVPFWADVVLGFRKMTEAELKRFPQYVFGQAFTTLKCETSAYLPWLERRIKGSGGLLLTRRIEDLWELQPSFDIVVNCSGLGSRRLVGDPMISPVRGQVLQARAPWVKHFIRDGGGLTYVYPGMSYVTLGGTRQKGDWNRSPDAELSREIFSRCCTLEPSLHRAYDIKEKVGLRPSRPGVRLQKEILVRGQQTLPVVHNYGHGSGGISVHWGSALEATRLVMECIHTLRTPASLSKL
B6: Chdh (protein, UniProt Q8BJ64 35-596)
chain: VASVGKDEYTFVVVGAGSAGCVLASRLTEDPNHRVLLLEAGPKDLLMGSKRLQWKIHMPAALVSNLCDDKYNWYYHTEPQPGMDSRVLYWPRGRVWGGSSSLNAMVYIRGHAEDYNRWHREGAEGWDYAHCLPYFRKAQRHELGANMYRGGDGPLHVSRGKTNHPLHQAFLQAARQAGYPFTEDMNGFQQEGFGWMDMTVHQGKRWSTACAYLHPVLSRPNLRAEVQTLVSRVLFEGTRAVGVEYIKDGQRHKAYVSREVILSGGAINSPQLLMLSGVGNADDLRKLDIPVVCHLPGVGQNLQDHLEVYVQQACTQPITLHSAQKPLRKVCIGLEWLWSYTGDGATAHLETGGFIRSRPGVPHPDIQFHFLPSQVIDHGRKPTQQEAYQVHVGTMRATSVGWLKLRSANPRDHPVIHPNYLSTETDVEDFRQCVRLSREIFAQEALAPFRGKELQPGSHVQSDKEIDAFVRAKADSAYHPSCTCKMGRSSDPTAVVDAQTKVIGVENLRVVDASIMPSVVSGNLNAPTVMIAEKAADIIKGHPALEDKNVPVYKPQTLDTQR
B7: Ampd3 (Adenosine Monophosphate Deaminase 3) (protein, UniProt O08739 1-766)
chain: MPRQFPKLNMSDLDEHVRLLAEKVFAKVLREEDSKDVMSLFTVPEDCPIGQKEAKERELQKELAEQKSVETAKRKKSFKMIRSQSLSLQMPTQQDWKGPPTASPAMSPATPLVPGATSKPGPAPYAMPEYQRVTISGDYCAGITVEDYEQAAKSLAKALMIREKYARLAYHRFPRTTAQYLAHQGESVPLEEGLPDFHPPPLPQEDPYCLDDAPPNLGYLVRMHGGVLFVYDNQTMLERQEPHSLPYPDLETYIVDMSHILALITDGPTKTYCHRRLNFLESKFSLHEMLNEMSEFKELKSNPHRDFYNVRKVDTHIHAAACMNQKHLLRFIKHTYQTEPDRTVAEKLGRKITLRQVFDSLHMDPYDLTVDSLDVHAGRQTFHRFDKFNSKYNPVGASELRDLYLKTENYLGGEYFARMVKEVARELEDSKYQYSEPRLSIYGRSPKEWSSLARWFIQHKVYSPNMRWIIQVPRIYDIFRSKKLLPNFGKMLENIFLPLFKATINPQDHRELHLFLKYVTGFDSVDDESKHSDHMFSDKSPSPDLWTSEQNPPYSYYLYYMYANIMVLNNLRRERGLSTFLFRPHCGEAGSITHLVSAFLTADNISHGLLLKKSPVLQYLYYLAQIPIAMSPLSNNSLFLEYSKNPLREFLHKGLHVSLSTDDPMQFHYTKEALMEEYAIAAQVWKLSTCDLCEIARNSVLQSGLSHQEKQKFLGQNYYKEGPEGNDIRKTNVAQIRMAFRYETLCNELSFLSDAMKSEEITALTK
B8: Far1 (Fatty Co-acyl-CoA Reductase 1) (protein, UniProt Q922J9 1-515)
chain: MVSIPEYYEGKNILLTGATGFLGKVLLEKLLRSCPRVNSVYVLVRQKAGQTPQERVEEILSSKLFDRLRDENPDFREKIIAINSELTQPKLALSEEDKEIIIDSTNVIFHCAATVRFNENLRDAVQLNVIATRQLILLAQQMKNLEVFMHVSTAYAYCNRKHIDEVVYPPPVDPKKLIDSLEWMDDGLVNDITPKLIGDRPNTYIYTKALAEYVVQQEGAKLNVAIVRPSIVGASWKEPFPGWIDNFNGPSGLFIAAGKGILRTMRASNNALADLVPVDVVVNTSLAAAWYSGVNRPRNIMVYNCTTGSTNPFHWGEVEYHVISTFKRNPLEQAFRRPNVNLTSNHLLYHYWIAVSHKAPAFLYDIYLRMTGRSPRMMKTITRLHKAMVFLEYFTSNSWVWNTDNVNMLMNQLNPEDKKTFNIDVRQLHWAEYIENYCMGTKKYVLNEEMSGLPAARKHLNKLRNIRYGFNTILVILIWRIFIARSQMARNIWYFVVSLCYKFLSYFRASSTMRY
B9: Rb1 (Retinoblastoma-associated protein 1) (protein, UniProt P13405 1-921)
chain: MPPKAPRRAAAAEPPPPPPPPPREDDPAQDSGPEELPLARLEFEEIEEPEFIALCQKLKVPDHVRERAWLTWEKVSSVDGILEGYIQKKKELWGICIFIAAVDLDEMPFTFTELQKSIETSVYKFFDLLKEIDTSTKVDNAMSRLLKKYNVLCALYSKLERTCELIYLTQPSSALSTEINSMLVLKISWITFLLAKGEVLQMEDDLVISFQLMLCVVDYFIKFSPPALLREPYKTAAIPINGSPRTPRRGQNRSARIAKQLENDTRIIEVLCKEHECNIDEVKNVYFKNFIPFINSLGIVSSNGLPEVESLSKRYEEVYLKNKDLDARLFLDHDKTLQTDPIDSFETERTPRKNNPDEEANVVTPHTPVRTVMNTIQQLMVILNSASDQPSENLISYFNNCTVNPKENILKRVKDVGHIFKEKFANAVGQGCVDIGVQRYKLGVRLYYRVMESMLKSEEERLSIQNFSKLLNDNIFHMSLLACALEVVMATYSRSTLQHLDSGTDLSFPWILNVLNLKAFDFYKVIESFIKVEANLTREMIKHLERCEHRIMESLAWLSDSPLFDLIKQSKDGEGPDNLEPACPLSLPLQGNHTAADMYLSPLRSPKKRTSTTRVNSAANTETQAASAFHTQKPLKSTSLALFYKKVYRLAYLRLNTLCARLLSDHPELEHIIWTLFQHTLQNEYELMRDRHLDQIMMCSMYGICKVKNIDLKFKIIVTAYKDLPHAAQETFKRVLIREEEFDSIIVFYNSVFMQRLKTNILQYASTRPPTLSPIPHIPRSPYKFSSSPLRIPGGNIYISPLKSPYKISEGLPTPTKMTPRSRILVSIGESFGTSEKFQKINQMVCNSDRVLKRSAEGGNPPKPLKKLRFDIEGADEADGSKHLPAESKFQQKLAEMTSTRTRMQKQRMNESKDVSNKEEK
B10: Rmnd5B (Required for meiotic nuclear division 5 homolog B) (protein, UniProt Q91YQ7 1-393)
chain: MEQCACVERELDKVLHKFLTYGQHCEQSLEELLHSVGQLRAELASAALQGTPLSATLSLVMSQCCRKIRDTVQKLASDHKDIHSSVSRVGKAIDRNFDSEICGVVSDAVWDSREKQQQILQMAIVEHLYQQGMLSVAEELCQESTLNVDLDFKQPFLELNRILEALHEQDLGPALEWAVSHRQRLLELNSSLEFKLHRLHFIRLLAGGPEKQLEALSYARHFQPFARLHQREIQVMMGSLVYLRLGLEKSPYCHLLDNSHWAEICETFTRDACSLLGLSVESPLSVSFASGCVALPVLMNIKAVIEQRQCTGVWSHKDELPIEIELGMKCWYHSVFACPILRQQTSDSNPPIKLICGHVISRDALNKLINGGKLKCPYCPMEQNPADGKRIIF
B11: Parp12 (Poly[ADP-ribose] polymerase member 12) (protein, UniProt Q8BZ20 1-711)
chain: MAQAAVAVAEVTQLLCAAGGALELAELRRRLRTSLGTDALERLLRDCGRFVVASRAVVAVGAGREAAAAASERLVLAVSSLRLCRAHQGPKPGCTGLCAQLHLCKFLIYGNCKFLKTGKNCRNGHNLKTDHNLSVLRTHGVDHLTYTELCQLLLQNDPSLLPDICLHYNKGDGPFGSCSFQKQCIKLHICQYFLQGECKFGTSCKRSHEFTNSESLEQLERLGLSSDLVSRLLSTYRNAYDIKNKGSALSKVSPSPAGPQGSSERKDSSGPVSPGTPSQEESEQICLYHIRKSCSFQEKCHRVHFHLPYRWQFLDGGKWKDLDNMELIEEAYSNPSKDRIVYTESAAGFHFDNLDFNSMKFGNTLARRLSTASSVTKPPHFILTTDWIWYWMDEFGSWQEYGRQGSGHPVTTISSSDVERAYLAFCAPGADAQAATLKFQAGKHNYELHFKAFLQKNLVYGTIRKVCRRPKYVSPQDVQMKQSCNTKLHGPKSIPDYWDPAALPDLGFKKITLSSSSEEYQKVWNIFNRTLPFYFVQKIERIQNMGLWEVYQWQKCQMQKQNGGKEVDERQLFHGTSANFVDAICQQNFDWRVCGLHGTSYGKGSYFARDAAYSHHYSKSDTHSHMMFLARVLVGDFVRGSTSFVRPPAKEGQSNAFYDSCVNSMSDPTIFVVFEKHQVYPEYLIQYSTSSKPPASPSIFVALGNLFTSRQ

Each binder was assayed against RanBP9-3xHA (Ran Binding Protein 9 fused to three copies of the HA tag) (mouse) (UniProt P69566) (assay: affinity purification with mass spectrometry; anti-HA magnetic beads on 1 mg pre-cleared whole lung lysate of LysMBP9X mice, overnight at 4 °C, on-bead trypsin digestion, LC-MS/MS; hits significant (p ≤ 0.05) against HA-IP from WT mice and Ig-IPs).

binding	Binder
binds	B1
binds	B2
binds	B3
binds	B4
binds	B5
binds	B6
binds	B7
binds	B8
binds	B9
binds	B10
binds	B11
